According to publication PMC10202830, “Cingulin and paracingulin tether myosins-2 to junctions to mechanoregulate the plasma membrane” (The Journal of Cell Biology, 2023):
No constants are given. Whether binding was seen depends on the method and setting. For some assays here: Binding calls can cover weak binding; strength is not graded here. Where a sequence is shown, tags or fusion partners need not be part of it. For some assays here: Binding seen in cells or lysates may run through a third protein.

Chains of the proteins cited; added tags and fusions are not shown. Lines headed by an entry give the natural chain unless they say otherwise; changes in a name come on top.
UniProt P35580: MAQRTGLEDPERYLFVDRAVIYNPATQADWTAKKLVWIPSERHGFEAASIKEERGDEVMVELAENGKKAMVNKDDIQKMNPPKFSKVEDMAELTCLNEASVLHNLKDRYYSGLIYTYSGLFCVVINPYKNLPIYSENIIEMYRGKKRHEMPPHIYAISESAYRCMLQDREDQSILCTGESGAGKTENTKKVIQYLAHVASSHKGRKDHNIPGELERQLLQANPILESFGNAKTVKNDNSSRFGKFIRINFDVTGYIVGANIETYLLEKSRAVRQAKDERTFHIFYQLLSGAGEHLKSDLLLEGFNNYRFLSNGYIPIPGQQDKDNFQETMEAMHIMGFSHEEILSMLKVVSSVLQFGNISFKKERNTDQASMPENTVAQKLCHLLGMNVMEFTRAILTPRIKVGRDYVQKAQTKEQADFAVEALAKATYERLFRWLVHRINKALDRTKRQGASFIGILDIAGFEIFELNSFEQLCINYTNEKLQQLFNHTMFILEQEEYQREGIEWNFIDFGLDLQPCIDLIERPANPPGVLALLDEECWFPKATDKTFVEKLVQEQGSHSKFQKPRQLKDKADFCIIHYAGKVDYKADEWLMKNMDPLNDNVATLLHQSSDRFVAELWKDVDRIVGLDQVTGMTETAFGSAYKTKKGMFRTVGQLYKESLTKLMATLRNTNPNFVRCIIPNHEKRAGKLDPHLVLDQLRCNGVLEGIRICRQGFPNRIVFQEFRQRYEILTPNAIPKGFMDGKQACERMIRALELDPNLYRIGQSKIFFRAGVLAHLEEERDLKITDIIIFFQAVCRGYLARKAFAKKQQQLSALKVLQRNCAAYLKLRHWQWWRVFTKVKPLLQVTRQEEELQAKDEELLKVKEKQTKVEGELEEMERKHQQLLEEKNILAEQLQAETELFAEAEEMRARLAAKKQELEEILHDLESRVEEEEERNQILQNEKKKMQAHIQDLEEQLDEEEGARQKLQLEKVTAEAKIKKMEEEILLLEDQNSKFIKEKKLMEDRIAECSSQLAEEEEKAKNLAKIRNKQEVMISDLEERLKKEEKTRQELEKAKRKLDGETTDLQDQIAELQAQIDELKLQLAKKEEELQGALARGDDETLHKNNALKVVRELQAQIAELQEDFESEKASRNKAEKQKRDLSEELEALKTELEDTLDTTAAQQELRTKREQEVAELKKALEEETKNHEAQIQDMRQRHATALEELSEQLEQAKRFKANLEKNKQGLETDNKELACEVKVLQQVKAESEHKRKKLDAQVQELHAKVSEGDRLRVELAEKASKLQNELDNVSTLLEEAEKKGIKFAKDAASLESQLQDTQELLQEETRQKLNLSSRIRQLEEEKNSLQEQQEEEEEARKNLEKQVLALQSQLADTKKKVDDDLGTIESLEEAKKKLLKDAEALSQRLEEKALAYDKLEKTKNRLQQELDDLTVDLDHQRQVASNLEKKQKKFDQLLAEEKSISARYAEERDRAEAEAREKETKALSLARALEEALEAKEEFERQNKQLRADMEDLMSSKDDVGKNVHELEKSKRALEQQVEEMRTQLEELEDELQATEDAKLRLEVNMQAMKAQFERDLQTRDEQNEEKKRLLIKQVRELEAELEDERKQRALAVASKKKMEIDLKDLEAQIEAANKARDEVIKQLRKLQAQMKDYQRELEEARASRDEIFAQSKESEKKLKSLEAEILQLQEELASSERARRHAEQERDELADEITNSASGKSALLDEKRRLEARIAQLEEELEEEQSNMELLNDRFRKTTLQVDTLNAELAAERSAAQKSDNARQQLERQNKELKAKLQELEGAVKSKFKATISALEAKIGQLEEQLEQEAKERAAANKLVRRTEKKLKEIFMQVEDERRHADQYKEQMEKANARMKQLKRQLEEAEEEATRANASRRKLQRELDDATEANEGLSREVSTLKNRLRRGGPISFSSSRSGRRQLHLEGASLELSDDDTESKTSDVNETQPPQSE

What was measured:
GST-CGN (1015–1203) = target: T1, GST-CGN (1015–1203) (UniProt Q9P2M7); assay: pull-down; GST-fusion fragments of CGN or CGNL1 as baits; NM2 rod fragments purified from bacteria as preys; IB with anti-NM2 antibodies (Fig. S1 C, D); both purified
T1 sequence: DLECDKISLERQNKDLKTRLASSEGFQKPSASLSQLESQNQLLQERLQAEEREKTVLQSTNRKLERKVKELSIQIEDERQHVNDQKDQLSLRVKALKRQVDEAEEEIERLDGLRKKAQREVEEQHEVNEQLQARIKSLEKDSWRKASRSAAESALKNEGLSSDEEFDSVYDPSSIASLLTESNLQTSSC

[1] = target: T2, GST-hCGNL1 (1105–1302) (human) (UniProt Q0VF96); assay: as above
T2 sequence: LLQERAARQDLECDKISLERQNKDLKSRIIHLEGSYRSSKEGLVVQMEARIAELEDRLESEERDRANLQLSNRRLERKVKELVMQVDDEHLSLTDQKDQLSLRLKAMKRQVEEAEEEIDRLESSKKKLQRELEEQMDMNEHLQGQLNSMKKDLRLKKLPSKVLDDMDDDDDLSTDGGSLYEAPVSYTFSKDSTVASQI

[2] = target: T3, GST-hCGNL1 (421–603) (human) (UniProt Q0VF96); assay: as above
T3 sequence: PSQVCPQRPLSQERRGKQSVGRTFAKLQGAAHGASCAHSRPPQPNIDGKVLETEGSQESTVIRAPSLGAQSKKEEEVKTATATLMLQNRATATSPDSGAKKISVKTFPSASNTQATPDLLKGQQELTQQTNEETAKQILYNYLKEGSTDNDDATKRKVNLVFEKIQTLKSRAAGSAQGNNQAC

GST-CGN (1–226) = target: T4, GST-CGN (1–226) (UniProt Q9P2M7); assay: as above
T4 sequence: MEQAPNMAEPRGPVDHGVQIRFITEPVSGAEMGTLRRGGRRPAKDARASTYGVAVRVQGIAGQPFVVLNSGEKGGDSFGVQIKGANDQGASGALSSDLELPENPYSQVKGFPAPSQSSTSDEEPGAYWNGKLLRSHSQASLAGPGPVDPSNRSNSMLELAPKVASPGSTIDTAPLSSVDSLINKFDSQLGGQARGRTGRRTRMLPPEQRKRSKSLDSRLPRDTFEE

[3] = target: T5, GST-cNM2A (1711–1960) (canis (dog)) (UniProt Q258K2); assay: pull-down; GST-tagged C-terminal (last 250 residues, rod+tail) fragments of NM2s as baits; GFP-tagged full-length or C-terminally truncated CGN or CGNL1 in HEK lysates as preys; IB with anti-GFP (Fig. S1 E–G, J–O); only the target purified
T5 sequence: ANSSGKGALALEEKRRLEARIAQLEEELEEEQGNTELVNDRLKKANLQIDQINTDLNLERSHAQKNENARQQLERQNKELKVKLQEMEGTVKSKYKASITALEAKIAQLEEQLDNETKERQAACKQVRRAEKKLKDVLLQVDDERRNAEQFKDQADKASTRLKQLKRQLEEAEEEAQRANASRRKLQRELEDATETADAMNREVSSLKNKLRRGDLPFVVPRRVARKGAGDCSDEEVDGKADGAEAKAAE

[4] = target: GST-cNM2B (1507–2006) (canis (dog)); assay: pull-down; affinity purified GST-tagged cNM2A, cNM2B, cNM2C rod fragments as baits; His-tagged full-length CGN and CGNL1 purified from baculovirus-infected insect cells as preys; IB with anti-His (Fig. 1 H–J); both purified
[5] = target: GST-cNM2B (1757–2006) (canis (dog)); assay: as above
[6] = target: GST-cNM2B (1906–2006) (canis (dog)); assay: as above
[7] = target: GST-cNM2C (1566–2065) (canis (dog)); assay: as above
[8] = target: GST-cNM2C (1816–2065) (canis (dog)); assay: as above
[9] = target: hNM2B rod (1337–1976), purified (human) (UniProt P35580); assay: co-sedimentation; filament pelleting assay: NM2B Rod, CGN Rod2 or both at 5 μM, dialysed overnight against 10 mM sodium phosphate, 150 mM NaCl, 2 MgCl2; 45,000 rpm 1 h 4°C; supernatant and pellet by SDS-PAGE; both purified

Question: “hNM2A rod (1330–1960), purified (from UniProt P35579) (domain or fragment)” was tested. Which binding (GST-CGN (1015–1203)) did it give?
Answer: no binding

Question: And the binding [1]?
Answer: binds

Question: What about the binding [2] of the same molecule?
Answer: no binding

Question: What does the source list for “hNM2B rod (1337–1976), purified (from UniProt P35580) (domain or fragment)”?
Answer: binding (GST-CGN (1015–1203)): binds; binding (GST-CGN (1–226)): no binding; binding [1]: binds; binding [2]: no binding

Question: Which binding [3] does the source give for “GFP-cCGN-myc-Δ1003-1190 (1–1,002aa) (canis (dog)) (domain or fragment)” here?
Answer: binds weakly

Question: With “GFP-cCGNL1-myc-Δ878-1295 (1–877aa) (canis (dog)) (domain or fragment)” as the molecule, how does the binding [3] read?
Answer: binds

B1: full-length hCGN (CGN-FL-10xHis-2xStrep), purified (protein, UniProt Q9P2M7 1-1203)
chain: MEQAPNMAEPRGPVDHGVQIRFITEPVSGAEMGTLRRGGRRPAKDARASTYGVAVRVQGIAGQPFVVLNSGEKGGDSFGVQIKGANDQGASGALSSDLELPENPYSQVKGFPAPSQSSTSDEEPGAYWNGKLLRSHSQASLAGPGPVDPSNRSNSMLELAPKVASPGSTIDTAPLSSVDSLINKFDSQLGGQARGRTGRRTRMLPPEQRKRSKSLDSRLPRDTFEERERQSTNHWTSSTKYDNHVGTSKQPAQSQNLSPLSGFSRSRQTQDWVLQSFEEPRRSAQDPTMLQFKSTPDLLRDQQEAAPPGSVDHMKATIYGILREGSSESETSVRRKVSLVLEKMQPLVMVSSGSTKAVAGQGELTRKVEELQRKLDEEVKKRQKLEPSQVGLERQLEEKTEECSRLQELLERRKGEAQQSNKELQNMKRLLDQGEDLRHGLETQVMELQNKLKHVQGPEPAKEVLLKDLLETRELLEEVLEGKQRVEEQLRLRERELTALKGALKEEVASRDQEVEHVRQQYQRDTEQLRRSMQDATQDHAVLEAERQKMSALVRGLQRELEETSEETGHWQSMFQKNKEDLRATKQELLQLRMEKEEMEEELGEKIEVLQRELEQARASAGDTRQVEVLKKELLRTQEELKELQAERQSQEVAGRHRDRELEKQLAVLRVEADRGRELEEQNLQLQKTLQQLRQDCEEASKAKMVAEAEATVLGQRRAAVETTLRETQEENDEFRRRILGLEQQLKETRGLVDGGEAVEARLRDKLQRLEAEKQQLEEALNASQEEEGSLAAAKRALEARLEEAQRGLARLGQEQQTLNRALEEEGKQREVLRRGKAELEEQKRLLDRTVDRLNKELEKIGEDSKQALQQLQAQLEDYKEKARREVADAQRQAKDWASEAEKTSGGLSRLQDEIQRLRQALQASQAERDTARLDKELLAQRLQGLEQEAENKKRSQDDRARQLKGLEEKVSRLETELDEEKNTVELLTDRVNRGRDQVDQLRTELMQERSARQDLECDKISLERQNKDLKTRLASSEGFQKPSASLSQLESQNQLLQERLQAEEREKTVLQSTNRKLERKVKELSIQIEDERQHVNDQKDQLSLRVKALKRQVDEAEEEIERLDGLRKKAQREVEEQHEVNEQLQARIKSLEKDSWRKASRSAAESALKNEGLSSDEEFDSVYDPSSIASLLTESNLQTSSC
Question: What does the source list for B1?
Answer: binding [4]: binds; binding [5]: binds; binding [6]: no binding; binding [7]: binds weakly; binding [8]: binds weakly

B2: full-length hCGNL1 (10xHis-2xStrep), purified (protein, UniProt Q0VF96 1-1302)
chain: MELYFGEYQHVQQEYGVHLRLASDDTQKSRSSQNSKAGSYGVSIRVQGIDGHPYIVLNNTERCLAGTSFSENGPPFPPPVINNLPLHSSNGSVPKENSEELQLPENPYAQPSPIRNLKQPLLHEGKNGVLDRKDGSVKPSHLLNFQRHPELLQPYDPEKNELNLQNHQPSESNWLKTLTEEGINNKKPWTCFPKPSNSQPTSPSLEDPAKSGVTAIRLCSSVVIEDPKKQTSVCVNVQSCTKERVGEEALFTSGRPLTAHSPHAHPETKKTRPDVLPFRRQDSAGPVLDGARSRRSSSSSTTPTSANSLYRFLLDDQECAIHADNVNRHENRRYIPFLPGTGRDIDTGSIPGVDQLIEKFDQKPGLQRRGRSGKRNRINTDDRKRSRSVDSAFPFGLQGNSEYLIEFSRNLGKSSEHLLRPSQVCPQRPLSQERRGKQSVGRTFAKLQGAAHGASCAHSRPPQPNIDGKVLETEGSQESTVIRAPSLGAQSKKEEEVKTATATLMLQNRATATSPDSGAKKISVKTFPSASNTQATPDLLKGQQELTQQTNEETAKQILYNYLKEGSTDNDDATKRKVNLVFEKIQTLKSRAAGSAQGNNQACNSTSEVKDLLEQKSKLTIEVAELQRQLQLEVKNQQNIKEERERMRANLEELRSQHNEKVEENSTLQQRLEESEGELRKNLEELFQVKMEREQHQTEIRDLQDQLSEMHDELDSAKRSEDREKGALIEELLQAKQDLQDLLIAKEEQEDLLRKRERELTALKGALKEEVSSHDQEMDKLKEQYDAELQALRESVEEATKNVEVLASRSNTSEQDQAGTEMRVKLLQEENEKLQGRSEELERRVAQLQRQIEDLKGDEAKAKETLKKYEGEIRQLEEALVHARKEEKEAVSARRALENELEAAQGNLSQTTQEQKQLSEKLKEESEQKEQLRRLKNEMENERWHLGKTIEKLQKEMADIVEASRTSTLELQNQLDEYKEKNRRELAEMQRQLKEKTLEAEKSRLTAMKMQDEMRLMEEELRDYQRAQDEALTKRQLLEQTLKDLEYELEAKSHLKDDRSRLVKQMEDKVSQLEMELEEERNNSDLLSERISRSREQMEQLRNELLQERAARQDLECDKISLERQNKDLKSRIIHLEGSYRSSKEGLVVQMEARIAELEDRLESEERDRANLQLSNRRLERKVKELVMQVDDEHLSLTDQKDQLSLRLKAMKRQVEEAEEEIDRLESSKKKLQRELEEQMDMNEHLQGQLNSMKKDLRLKKLPSKVLDDMDDDDDLSTDGGSLYEAPVSYTFSKDSTVASQI
Question: What does the source list for B2?
Answer: binding [4]: binds; binding [5]: binds; binding [6]: no binding; binding [7]: binds weakly; binding [8]: binds weakly

B3: His-tagged hCGN Rod2 (667–1203), purified (domain or fragment, UniProt Q9P2M7 667-1203)
chain: AVLRVEADRGRELEEQNLQLQKTLQQLRQDCEEASKAKMVAEAEATVLGQRRAAVETTLRETQEENDEFRRRILGLEQQLKETRGLVDGGEAVEARLRDKLQRLEAEKQQLEEALNASQEEEGSLAAAKRALEARLEEAQRGLARLGQEQQTLNRALEEEGKQREVLRRGKAELEEQKRLLDRTVDRLNKELEKIGEDSKQALQQLQAQLEDYKEKARREVADAQRQAKDWASEAEKTSGGLSRLQDEIQRLRQALQASQAERDTARLDKELLAQRLQGLEQEAENKKRSQDDRARQLKGLEEKVSRLETELDEEKNTVELLTDRVNRGRDQVDQLRTELMQERSARQDLECDKISLERQNKDLKTRLASSEGFQKPSASLSQLESQNQLLQERLQAEEREKTVLQSTNRKLERKVKELSIQIEDERQHVNDQKDQLSLRVKALKRQVDEAEEEIERLDGLRKKAQREVEEQHEVNEQLQARIKSLEKDSWRKASRSAAESALKNEGLSSDEEFDSVYDPSSIASLLTESNLQTSSC
Question: With B3 as the molecule, how does the binding [9] read?
Answer: binds
